Results are given in words; binding and its absence hold for the method and conditions named. Binding seen in cells or lysates may run through a third protein.
Target: SURF4-FLAG (UniProt O15260)
Assay: co-IP

The chains behind the UniProt entries cited, without tags or fusion partners.
UniProt O15260: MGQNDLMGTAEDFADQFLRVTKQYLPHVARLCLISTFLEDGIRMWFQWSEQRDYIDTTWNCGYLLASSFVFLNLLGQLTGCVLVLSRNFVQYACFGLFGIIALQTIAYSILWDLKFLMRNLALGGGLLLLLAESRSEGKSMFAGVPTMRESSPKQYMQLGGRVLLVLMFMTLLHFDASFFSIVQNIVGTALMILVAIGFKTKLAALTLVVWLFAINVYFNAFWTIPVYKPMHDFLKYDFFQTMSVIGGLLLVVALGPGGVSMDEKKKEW

binding: no binding
B1: calnexin (protein, UniProt P27824 21-592)
chain: HDGHDDDVIDIEDDLDDVIEEVEDSKPDTTAPPSSPKVTYKAPVPTGEVYFADSFDRGTLSGWILSKAKKDDTDDEIAKYDGKWEVEEMKESKLPGDKGLVLMSRAKHHAISAKLNKPFLFDTKPLIVQYEVNFQNGIECGGAYVKLLSKTPELNLDQFHDKTPYTIMFGPDKCGEDYKLHFIFRHKNPKTGIYEEKHAKRPDADLKTYFTDKKTHLYTLILNPDNSFEILVDQSVVNSGNLLNDMTPPVNPSREIEDPEDRKPEDWDERPKIPDPEAVKPDDWDEDAPAKIPDEEATKPEGWLDDEPEYVPDPDAEKPEDWDEDMDGEWEAPQIANPRCESAPGCGVWQRPVIDNPNYKGKWKPPMIDNPSYQGIWKPRKIPNPDFFEDLEPFRMTPFSAIGLELWSMTSDIFFDNFIICADRRIVDDWANDGWGLKKAADGAAEPGVVGQMIEAAEERPWLWVVYILTVALPVFLVILFCCSGKKQTSGMEYKKTDAPQPDVKEEEEEKEEEKDKGDEEEEGEEKLEEKQKSDAEEDGGTVSQEEEDRKPKAEEDEILNRSPRNRKPRRE

Reference: article doi:10.1101/866954
